Here are results for 40 sequences from paper PMC7862700.

The list shows a part of the results, in another mix than the full data. At the low end of the ranking, values are background and their order means little.

This experiment has as its target T1, ELK3 (UniProt P41970).
T1 sequence: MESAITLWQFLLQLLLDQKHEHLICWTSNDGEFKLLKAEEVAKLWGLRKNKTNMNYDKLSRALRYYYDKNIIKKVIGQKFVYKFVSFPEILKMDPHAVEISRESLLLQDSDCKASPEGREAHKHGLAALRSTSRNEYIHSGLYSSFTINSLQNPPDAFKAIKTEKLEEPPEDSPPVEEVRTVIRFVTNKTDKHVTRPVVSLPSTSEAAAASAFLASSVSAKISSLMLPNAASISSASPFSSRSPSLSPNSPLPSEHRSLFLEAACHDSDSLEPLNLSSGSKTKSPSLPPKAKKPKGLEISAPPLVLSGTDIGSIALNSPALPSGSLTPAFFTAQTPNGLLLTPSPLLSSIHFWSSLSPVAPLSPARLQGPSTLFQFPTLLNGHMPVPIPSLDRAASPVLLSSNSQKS
Put plainly: DAPPL (digital affinity profiling via proximity ligation, sequencing). The conditions noted are these: 10 mM Tris-HCl pH 7.5, 50 mM NaCl, 1 mM DTT, 4% glycerol, room temperature, 30 min; GST-TFs on glutathione beads, 16-mer random dsDNA library, 0.1% …; high values mean tight binding; double strand, one strand shown; scale: fold enrichment (6-mer frequency, TF over GST control).
CTCCGG came in with a binding signal of 1.6. Then GGCTAG, with 1; and AATGCT, with 1.12. Regarding CGAAAG, the binding signal was 0.963. To TACCCT belongs 1.41; to AATAGC, 1.1. To ATTGCG belongs 1.27; to TACTTT, 1.11. To TTCTTC belongs 2.25; to ACGAAC, 1.13; to CGAATA, 1.21. Consider AAATTC, for which the binding signal amounted to 1.42.

GATTTT registered a binding signal of 1.07. Then TTCCCT, with 1.8. Then CTGCCA, with 1.08; and GCGACT, with 1.25; and TCTGTT, with 1.15. To GTTTGG belongs 0.999; to TTAGAA, 1.06; to ATCTTC, 1.59. TAGCGG returned a binding signal of 1.08. TAGTCT showed a binding signal of 0.968. Then CCCATT, with 1.41; and AATCAA, with 1.14; and AAGTCC, with 1.27.

GTGCTT came in with a binding signal of 1.4. Then TCGCCT, with 1.15; and TTGATA, with 1.01; and ATCTGT, with 1.07.

The sequence TGAACT showed a binding signal of 1.19.

In the case of TTAAAC, the binding signal is 1.31. Then CTCAGA, with 1.02; and CCTGAT, with 1.45; and GATATA, with 1.17. To TCTACT belongs 1.28.

Consider ATCTAC, for which the binding signal worked out at 1.27. Then TTACCC, with 1.39; and ATGGTA, with 1.36. Then TGGACC, with 0.919; and GCTGAA, with 0.994.
